These results are taken from article PMC7181186.

No constants are given. Whether binding was seen depends on the method and setting. In cells and extracts the contact can be indirect. Binding calls can cover weak binding; strength is not graded here. Where a sequence is shown, tags or fusion partners need not be part of it.

For this experiment, the target named is BZR1-GFP (Arabidopsis thaliana). Nature of the experiment: co-IP; N. benthamiana leaves transiently co-expressing the GFP-tagged and the HA-tagged protein; total protein (50 mM HEPES pH 7.5, 1 mM EDTA, 0.5% Triton X-100, 1 mM DTT) precipitated with anti-GFP beads on ice for 30 min, three washes; immunoblot with anti-HA and anti-GFP. (In western blotting, separated proteins are transferred to a membrane and probed.)

B1: HA-ULP1a (enzyme, UniProt Q8GYL3 1-502)
chain: MKNQSRVLNSELGDFDLSVLWDQILNFEGYGSYCFRPMDMDGYHKRSAGLNPCKHSGFSHSSRPMAPGIYRYPEVKSSLRRQVHAPVRILNSGRDRSTRQGSGNVLGTFLTRNNDMWKRNALDSSLRYRTDREVIDVDDELGDVEMISDDTSREGVENVAMEVDEVEEKAEMGNGLFSEVASLKNGSLRVGECSKANSSSLVVNRPVTDVTSFEAYRKVLESAVNRTSKLKDRGFVDFFKERGRALLRSLSSFWRQDEEPVEVVQREAFVPLSREEETAVRRAFSANDSNILVTHKNSNIDITGKILRCLKPGKWLNDEVINLYMVLLKEREAREPKKFLKCHFFNTFFFTKLVNSATGYNYGAVRRWTSMKRLGYHLKDCDKIFIPIHMNIHWTLAVINIKDQKFQYLDSFKGREPKILDALARYFVDEVRDKSEVDLDVSRWRQEFVQDLPMQRNGFDCGMFMVKYIDFYSRGLDLCFTQEQMPYFRARTAKEILQLKAE
On to B1, for which the binding entry was “binds”.
